Test results taken from the supplement of paper PMC10849652.
Some of the results follow.

Chains of the proteins cited; added tags and fusions are not shown. Lines headed by an entry give the natural chain unless they say otherwise; changes in a name come on top.
UniProt P05556, whole entry, looked up: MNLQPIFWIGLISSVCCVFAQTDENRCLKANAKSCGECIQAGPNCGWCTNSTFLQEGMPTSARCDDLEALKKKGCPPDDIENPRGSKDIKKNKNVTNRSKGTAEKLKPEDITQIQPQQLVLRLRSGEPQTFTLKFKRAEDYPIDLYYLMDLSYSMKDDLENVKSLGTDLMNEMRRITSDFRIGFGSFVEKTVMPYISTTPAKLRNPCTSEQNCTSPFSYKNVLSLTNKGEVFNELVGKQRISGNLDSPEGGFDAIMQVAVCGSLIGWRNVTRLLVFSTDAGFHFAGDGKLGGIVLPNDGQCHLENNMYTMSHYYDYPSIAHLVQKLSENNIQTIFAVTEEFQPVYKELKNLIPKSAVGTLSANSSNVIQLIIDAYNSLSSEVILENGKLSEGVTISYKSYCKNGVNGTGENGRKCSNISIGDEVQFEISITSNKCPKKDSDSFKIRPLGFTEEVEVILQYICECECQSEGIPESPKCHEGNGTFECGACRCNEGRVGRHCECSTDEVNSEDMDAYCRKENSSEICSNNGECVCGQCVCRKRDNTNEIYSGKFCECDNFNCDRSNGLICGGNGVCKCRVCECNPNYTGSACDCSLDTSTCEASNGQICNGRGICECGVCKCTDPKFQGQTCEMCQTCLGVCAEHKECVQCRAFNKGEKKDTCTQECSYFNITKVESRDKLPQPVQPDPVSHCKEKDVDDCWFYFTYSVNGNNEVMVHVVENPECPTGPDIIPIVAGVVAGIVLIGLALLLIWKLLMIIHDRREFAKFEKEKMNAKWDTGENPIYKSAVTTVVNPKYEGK
UniProt P18084: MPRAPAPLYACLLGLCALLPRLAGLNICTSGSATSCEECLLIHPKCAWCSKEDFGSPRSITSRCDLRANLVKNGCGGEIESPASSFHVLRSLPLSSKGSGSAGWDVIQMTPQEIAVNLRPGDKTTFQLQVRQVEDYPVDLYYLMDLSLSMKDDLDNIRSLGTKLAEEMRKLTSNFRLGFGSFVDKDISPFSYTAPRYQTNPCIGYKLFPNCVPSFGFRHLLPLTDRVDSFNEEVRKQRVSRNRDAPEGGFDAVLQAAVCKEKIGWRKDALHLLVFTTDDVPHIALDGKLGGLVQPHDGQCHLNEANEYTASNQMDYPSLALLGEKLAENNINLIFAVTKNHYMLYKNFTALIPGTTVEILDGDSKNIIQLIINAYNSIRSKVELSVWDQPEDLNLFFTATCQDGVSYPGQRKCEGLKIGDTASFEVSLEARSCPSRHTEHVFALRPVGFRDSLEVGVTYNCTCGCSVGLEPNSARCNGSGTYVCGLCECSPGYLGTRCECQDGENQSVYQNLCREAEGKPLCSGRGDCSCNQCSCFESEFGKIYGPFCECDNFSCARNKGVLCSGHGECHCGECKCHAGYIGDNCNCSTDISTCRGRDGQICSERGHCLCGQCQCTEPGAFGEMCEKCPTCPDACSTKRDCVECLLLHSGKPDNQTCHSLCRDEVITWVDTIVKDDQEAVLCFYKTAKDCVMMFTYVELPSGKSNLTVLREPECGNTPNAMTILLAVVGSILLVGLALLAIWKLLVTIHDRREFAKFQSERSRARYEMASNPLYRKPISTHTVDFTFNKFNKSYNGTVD
UniProt O14920: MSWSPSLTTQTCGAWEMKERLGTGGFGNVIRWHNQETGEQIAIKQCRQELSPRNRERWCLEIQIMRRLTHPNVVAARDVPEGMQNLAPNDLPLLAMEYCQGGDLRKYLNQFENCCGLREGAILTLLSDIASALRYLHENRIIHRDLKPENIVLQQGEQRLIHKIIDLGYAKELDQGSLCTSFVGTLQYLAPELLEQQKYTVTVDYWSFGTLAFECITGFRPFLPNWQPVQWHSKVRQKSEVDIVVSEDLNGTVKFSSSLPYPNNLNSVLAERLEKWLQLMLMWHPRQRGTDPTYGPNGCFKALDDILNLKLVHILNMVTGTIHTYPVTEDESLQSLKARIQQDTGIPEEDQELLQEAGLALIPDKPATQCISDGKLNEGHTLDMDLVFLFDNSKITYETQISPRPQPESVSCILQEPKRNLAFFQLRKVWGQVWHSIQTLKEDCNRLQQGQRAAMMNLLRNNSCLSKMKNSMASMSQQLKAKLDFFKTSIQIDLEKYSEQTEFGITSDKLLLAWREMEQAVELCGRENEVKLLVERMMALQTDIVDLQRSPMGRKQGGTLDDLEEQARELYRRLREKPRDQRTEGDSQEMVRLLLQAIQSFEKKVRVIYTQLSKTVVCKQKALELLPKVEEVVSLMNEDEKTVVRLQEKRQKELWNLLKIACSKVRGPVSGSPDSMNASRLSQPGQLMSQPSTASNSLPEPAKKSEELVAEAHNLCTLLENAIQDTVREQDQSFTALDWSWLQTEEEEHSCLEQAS
UniProt Q9Y5U9: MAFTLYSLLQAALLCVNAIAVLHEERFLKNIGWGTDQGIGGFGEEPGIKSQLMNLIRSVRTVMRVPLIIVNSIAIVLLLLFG
UniProt Q9ULR0: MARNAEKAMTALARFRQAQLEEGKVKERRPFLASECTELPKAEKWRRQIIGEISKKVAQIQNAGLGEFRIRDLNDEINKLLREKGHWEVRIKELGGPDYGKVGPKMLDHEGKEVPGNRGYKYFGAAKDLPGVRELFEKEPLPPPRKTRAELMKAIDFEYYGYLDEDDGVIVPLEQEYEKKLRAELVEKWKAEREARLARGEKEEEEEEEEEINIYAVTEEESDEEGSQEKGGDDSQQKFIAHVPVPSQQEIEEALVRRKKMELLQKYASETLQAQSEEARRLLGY
UniProt P53990, whole entry, looked up: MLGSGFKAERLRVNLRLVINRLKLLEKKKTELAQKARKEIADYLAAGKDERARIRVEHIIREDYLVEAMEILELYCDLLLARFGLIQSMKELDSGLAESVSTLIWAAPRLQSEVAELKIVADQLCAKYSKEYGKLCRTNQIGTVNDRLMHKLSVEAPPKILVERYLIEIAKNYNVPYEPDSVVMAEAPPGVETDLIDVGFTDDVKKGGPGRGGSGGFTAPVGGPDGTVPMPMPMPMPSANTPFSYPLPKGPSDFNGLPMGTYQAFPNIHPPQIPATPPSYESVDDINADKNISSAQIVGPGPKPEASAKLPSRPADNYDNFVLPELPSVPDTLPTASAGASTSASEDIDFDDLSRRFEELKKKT
UniProt Q8IU81: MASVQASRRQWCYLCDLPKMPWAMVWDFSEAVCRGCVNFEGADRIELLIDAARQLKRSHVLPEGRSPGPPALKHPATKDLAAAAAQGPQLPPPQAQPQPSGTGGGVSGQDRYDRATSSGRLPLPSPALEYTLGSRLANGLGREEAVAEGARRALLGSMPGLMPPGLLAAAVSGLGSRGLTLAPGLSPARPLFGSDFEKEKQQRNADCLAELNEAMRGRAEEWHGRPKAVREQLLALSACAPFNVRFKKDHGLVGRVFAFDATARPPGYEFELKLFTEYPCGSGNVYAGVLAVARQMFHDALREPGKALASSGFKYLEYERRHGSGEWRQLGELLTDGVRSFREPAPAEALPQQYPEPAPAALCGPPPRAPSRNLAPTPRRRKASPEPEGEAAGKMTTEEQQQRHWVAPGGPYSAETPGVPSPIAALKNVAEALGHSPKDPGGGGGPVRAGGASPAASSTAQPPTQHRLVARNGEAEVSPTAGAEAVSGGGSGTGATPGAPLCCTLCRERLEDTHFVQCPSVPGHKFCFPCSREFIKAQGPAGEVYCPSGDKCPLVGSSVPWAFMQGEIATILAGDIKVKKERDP
UniProt P46940, whole entry, looked up: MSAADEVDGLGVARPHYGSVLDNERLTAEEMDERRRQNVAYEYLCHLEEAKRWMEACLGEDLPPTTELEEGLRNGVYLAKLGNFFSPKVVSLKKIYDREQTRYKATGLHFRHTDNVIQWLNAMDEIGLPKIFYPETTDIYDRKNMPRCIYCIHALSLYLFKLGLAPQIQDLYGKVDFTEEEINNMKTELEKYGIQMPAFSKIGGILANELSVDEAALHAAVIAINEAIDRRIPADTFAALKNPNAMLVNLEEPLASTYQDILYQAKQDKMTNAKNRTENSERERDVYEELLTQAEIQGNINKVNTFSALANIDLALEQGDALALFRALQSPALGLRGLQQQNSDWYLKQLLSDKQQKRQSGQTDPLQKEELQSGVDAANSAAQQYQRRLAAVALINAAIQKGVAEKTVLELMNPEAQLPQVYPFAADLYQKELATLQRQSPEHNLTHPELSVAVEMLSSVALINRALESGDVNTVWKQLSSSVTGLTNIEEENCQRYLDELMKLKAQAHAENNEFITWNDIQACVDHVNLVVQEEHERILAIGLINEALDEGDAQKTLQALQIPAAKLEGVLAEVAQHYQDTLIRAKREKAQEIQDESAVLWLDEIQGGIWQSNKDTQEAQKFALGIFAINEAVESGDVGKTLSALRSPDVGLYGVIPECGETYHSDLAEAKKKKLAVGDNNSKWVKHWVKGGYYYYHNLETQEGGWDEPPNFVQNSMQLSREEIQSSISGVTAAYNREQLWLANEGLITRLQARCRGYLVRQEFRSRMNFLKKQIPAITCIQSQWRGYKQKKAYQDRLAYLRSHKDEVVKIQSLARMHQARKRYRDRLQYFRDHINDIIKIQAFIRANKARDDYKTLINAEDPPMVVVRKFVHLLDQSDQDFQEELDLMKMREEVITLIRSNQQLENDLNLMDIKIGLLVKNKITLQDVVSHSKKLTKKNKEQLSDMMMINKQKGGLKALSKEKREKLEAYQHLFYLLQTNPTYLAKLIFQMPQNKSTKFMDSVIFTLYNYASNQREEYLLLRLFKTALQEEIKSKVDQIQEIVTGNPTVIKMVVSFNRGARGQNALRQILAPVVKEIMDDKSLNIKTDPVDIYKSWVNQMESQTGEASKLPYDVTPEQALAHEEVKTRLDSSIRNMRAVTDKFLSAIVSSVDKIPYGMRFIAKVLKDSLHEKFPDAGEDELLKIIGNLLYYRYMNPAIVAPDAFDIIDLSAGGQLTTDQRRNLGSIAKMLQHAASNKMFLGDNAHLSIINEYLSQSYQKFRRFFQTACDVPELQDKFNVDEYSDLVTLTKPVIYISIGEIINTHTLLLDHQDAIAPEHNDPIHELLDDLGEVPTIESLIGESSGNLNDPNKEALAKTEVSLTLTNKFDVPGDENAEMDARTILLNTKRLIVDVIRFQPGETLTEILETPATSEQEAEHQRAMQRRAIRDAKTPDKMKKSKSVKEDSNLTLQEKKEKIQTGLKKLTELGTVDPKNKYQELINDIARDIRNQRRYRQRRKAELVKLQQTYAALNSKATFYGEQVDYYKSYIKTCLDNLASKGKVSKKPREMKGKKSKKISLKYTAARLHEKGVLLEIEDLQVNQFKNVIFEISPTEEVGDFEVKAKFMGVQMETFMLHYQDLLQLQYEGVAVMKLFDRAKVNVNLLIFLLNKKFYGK
UniProt P17181: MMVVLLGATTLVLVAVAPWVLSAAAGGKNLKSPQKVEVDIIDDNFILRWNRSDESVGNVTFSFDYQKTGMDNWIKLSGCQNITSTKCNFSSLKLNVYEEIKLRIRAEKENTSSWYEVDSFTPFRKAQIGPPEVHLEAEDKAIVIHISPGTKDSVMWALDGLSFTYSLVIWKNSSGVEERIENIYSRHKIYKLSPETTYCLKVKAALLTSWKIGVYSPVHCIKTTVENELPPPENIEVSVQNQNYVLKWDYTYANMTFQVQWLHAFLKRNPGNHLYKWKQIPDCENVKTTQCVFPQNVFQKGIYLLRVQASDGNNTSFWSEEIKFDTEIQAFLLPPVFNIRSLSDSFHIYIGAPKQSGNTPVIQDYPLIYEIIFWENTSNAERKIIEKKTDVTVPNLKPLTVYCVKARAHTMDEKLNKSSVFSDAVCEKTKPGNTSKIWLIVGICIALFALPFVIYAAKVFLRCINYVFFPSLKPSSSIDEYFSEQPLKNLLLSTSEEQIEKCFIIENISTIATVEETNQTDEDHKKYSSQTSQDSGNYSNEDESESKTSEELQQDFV
UniProt Q9NVM9, whole entry, looked up: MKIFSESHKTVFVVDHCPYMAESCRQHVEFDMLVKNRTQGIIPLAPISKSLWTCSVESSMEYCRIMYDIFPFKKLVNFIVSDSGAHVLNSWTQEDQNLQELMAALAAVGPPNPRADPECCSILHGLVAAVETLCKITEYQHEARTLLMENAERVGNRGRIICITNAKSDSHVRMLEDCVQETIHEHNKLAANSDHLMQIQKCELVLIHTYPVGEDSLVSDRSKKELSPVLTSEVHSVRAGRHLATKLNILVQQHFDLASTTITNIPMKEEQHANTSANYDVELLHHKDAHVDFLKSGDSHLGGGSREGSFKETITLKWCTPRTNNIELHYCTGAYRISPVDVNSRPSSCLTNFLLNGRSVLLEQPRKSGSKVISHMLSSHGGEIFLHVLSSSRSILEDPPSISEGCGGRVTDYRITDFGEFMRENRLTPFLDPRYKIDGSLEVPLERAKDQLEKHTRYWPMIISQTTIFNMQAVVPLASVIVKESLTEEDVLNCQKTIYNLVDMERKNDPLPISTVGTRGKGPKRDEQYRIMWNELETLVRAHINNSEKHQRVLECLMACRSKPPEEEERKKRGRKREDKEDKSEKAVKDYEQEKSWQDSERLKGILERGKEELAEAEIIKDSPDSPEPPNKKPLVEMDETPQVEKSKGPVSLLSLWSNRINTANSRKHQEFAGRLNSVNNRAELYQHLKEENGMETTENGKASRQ

Legend:
Assay in all cases: log2 fold change, soluble protein after heating vs DMSO (PISA); higher = thermal stabilisation; K562 cells, 10 uM, 30 min; active = over 0.2 and 3.5 SD of the protein, either way, in both replicates (recomputed)
saracatinib = compound: CN1CCN(CCOc2cc(OC3CCOCC3)c3c(Nc4c(Cl)ccc5c4OCO5)ncnc3c2)CC1 [saracatinib]
Summary of the method: (§1)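 K562 cells at 2×10^6 cells/mL were treated for 30 min with 10 μM compound, and aliquots were heated for 3 min over 48°C-58°C before pooling. Extraction used PBS with 0.5% NP-40 at 4°C, and soluble protein was the supernatant after 21,000xg for 90 min, measured by TMTpro 16plex LC-MS/MS with channel sums equalised. Thermal stability values, relative to control samples and from duplicates, are log2 fold changes.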

sotrastaurin = compound: CN1CCN(c2nc(C3=C(c4c[nH]c5ccccc45)C(=O)NC3=O)c3ccccc3n2)CC1 [sotrastaurin]
Summary of the method: as §1

alvocidib = compound: CN1CC[C@H](c2c(O)cc(O)c3c(=O)cc(-c4ccccc4Cl)oc23)[C@H](O)C1 [alvocidib]
Summary of the method: as §1

Tubastatin A = compound: CN1CCc2c(c3ccccc3n2Cc2ccc(C(=O)NO)cc2)C1 [Tubastatin A]
Summary of the method: as §1

[1] = compound: CNC(=O)C1=CC=CC=C1NC2=NC(=NC=C2Cl)NC3=C(C=C(C=C3)N4CCOCC4)OC
Summary of the method: as §1

defactinib = compound: CNC(=O)c1ccc(Nc2ncc(C(F)(F)F)c(NCc3nccnc3N(C)S(C)(=O)=O)n2)cc1 [defactinib]
Summary of the method: as §1

rucaparib = compound: CNCc1ccc(-c2[nH]c3cc(F)cc4c3c2CCNC4=O)cc1 [rucaparib]
Summary of the method: as §1

[2] = compound: CNc1nc(-c2ccc3c(N)n[nH]c3c2)cc(N2C[C@@H](C(=O)NC3CCCCC3)CC[C@H]2C)n1
Summary of the method: as §1

encorafenib = compound: COC(=O)N[C@@H](C)CNc1nccc(-c2cn(C(C)C)nc2-c2cc(Cl)cc(NS(C)(=O)=O)c2F)n1 [encorafenib]
Summary of the method: as §1

[3] = compound: COC(=O)[C@H](CCSC)NC(=O)C1=C(C=C(C=C1)NC[C@H](CS)N)C2=CC=CC=C2
Summary of the method: as §1

[4] = compound: COC1=CC=C(C=C1)CN2C=CC3=C2C=C(C=C3)C(=O)NO
Summary of the method: as §1

filanesib = compound: CON(C)C(=O)N1N=C(c2cc(F)ccc2F)S[C@@]1(CCCN)c1ccccc1 [filanesib]
Summary of the method: as §1

zotarolimus = compound: CO[C@H]1C[C@@H]2CC[C@@H](C)[C@@](O)(O2)C(=O)C(=O)N2CCCC[C@H]2C(=O)O[C@H]([C@H](C)C[C@@H]2CC[C@H](n3cnnn3)[C@H](OC)C2)CC(=O)[C@H](C)/C=C(\C)[C@@H](O)[C@@H](OC)C(=O)[C@H](C)C[C@H](C)/C=C/C=C/C=C/1C [zotarolimus]
Summary of the method: as §1

idasanutlin = compound: COc1cc(C(=O)O)ccc1NC(=O)[C@@H]1N[C@@H](CC(C)(C)C)[C@](C#N)(c2ccc(Cl)cc2F)[C@H]1c1cccc(Cl)c1F [idasanutlin]
Summary of the method: as §1

alisertib = compound: COc1cc(Nc2ncc3c(n2)-c2ccc(Cl)cc2C(c2c(F)cccc2OC)=NC3)ccc1C(=O)O [alisertib]
Summary of the method: as §1

[5] = compound: COc1cc2nc(-c3cc(F)ccc3O)nc(N[C@@H]3CNC[C@H]3C(C)(C)O)c2cc1OC
Summary of the method: as §1

gefitinib = compound: COc1cc2ncnc(Nc3ccc(F)c(Cl)c3)c2cc1OCCCN1CCOCC1 [gefitinib]
Summary of the method: as §1

[6] = compound: COc1cccc2cc(-c3nc([C@H]4CC[C@H](C(=O)O)CC4)n4ncnc(N)c34)[nH]c12
Summary of the method: as §1

lapatinib = compound: CS(=O)(=O)CCNCc1ccc(-c2ccc3ncnc(Nc4ccc(OCc5cccc(F)c5)c(Cl)c4)c3c2)o1 [lapatinib]
Summary of the method: as §1

pictilisib = compound: CS(=O)(=O)N1CCN(Cc2cc3nc(-c4cccc5[nH]ncc45)nc(N4CCOCC4)c3s2)CC1 [pictilisib]
Summary of the method: as §1

Measured: log2 fold change

ISOC2 (UniProt Q96AB3)
inactive: saracatinib -0.135 | sotrastaurin -0.027 | alvocidib 0.25 | Tubastatin A 0.043 | [1] -0.071 | defactinib 0.031 | rucaparib 0.096 | [2] -0.122 | encorafenib 0.007 | [3] 0.068 | [4] 0.16 | filanesib 0.061 | zotarolimus 0.072 | idasanutlin -0.028 | alisertib -0.04 | [5] -0.067 | gefitinib 0 | [6] 0.001 | lapatinib -0.002

ITGB1 (UniProt P05556)
inactive: saracatinib 0.013 | sotrastaurin 0.034 | alvocidib 0.013 | Tubastatin A -0.036 | [1] -0.013 | defactinib -0.006 | rucaparib 0.004 | [2] -0.012 | encorafenib -0.011 | [3] 0.013 | [4] -0.027 | filanesib 0.029 | zotarolimus -0.006 | idasanutlin 0.066 | alisertib -0.066 | [5] 0.014 | gefitinib 0.03 | [6] -0.003 | lapatinib -0.005 | pictilisib 0.039

IMPA2 (UniProt O14732)
inactive: saracatinib -0.085 | sotrastaurin -0.102 | alvocidib 0.024 | Tubastatin A -0.053 | [1] -0.047 | defactinib -0.022 | rucaparib -0.057 | [2] -0.023 | encorafenib -0.133 | [3] 0.073 | filanesib -0.257 | zotarolimus -0.2 | idasanutlin 0.048 | alisertib 0.391 | [5] 0.027 | [6] -0.02 | lapatinib -0.053 | pictilisib 0.112

ITGB5 (UniProt P18084)
inactive: saracatinib 0.038 | sotrastaurin -0.021 | alvocidib -0.096 | Tubastatin A -0.053 | [1] 0.103 | defactinib -0.165 | rucaparib -0.027 | [2] -0.043 | encorafenib -0.005 | [3] 0.004 | [4] 0.005 | filanesib -0.035 | zotarolimus -0.077 | idasanutlin 0.028 | alisertib 0.021 | [5] 0 | gefitinib 0.02 | [6] 0.075 | lapatinib -0.022 | pictilisib -0.027

Random excerpt: 2 entries already listed
ISOC2 (UniProt Q96AB3)
inactive: saracatinib -0.135 | sotrastaurin -0.027 | alvocidib 0.25 | Tubastatin A 0.043 | [1] -0.071 | defactinib 0.031 | rucaparib 0.096 | [2] -0.122 | encorafenib 0.007 | [3] 0.068 | [4] 0.16 | filanesib 0.061 | zotarolimus 0.072 | idasanutlin -0.028 | alisertib -0.04 | [5] -0.067 | gefitinib 0 | [6] 0.001 | lapatinib -0.002

ITGB5 (UniProt P18084)
inactive: saracatinib 0.038 | sotrastaurin -0.021 | alvocidib -0.096 | Tubastatin A -0.053 | [1] 0.103 | defactinib -0.165 | rucaparib -0.027 | [2] -0.043 | encorafenib -0.005 | [3] 0.004 | [4] 0.005 | filanesib -0.035 | zotarolimus -0.077 | idasanutlin 0.028 | alisertib 0.021 | [5] 0 | gefitinib 0.02 | [6] 0.075 | lapatinib -0.022 | pictilisib -0.027

Following part:

IKBKB (UniProt O14920)
inactive: saracatinib -0.022 | sotrastaurin -0.228 | alvocidib 0.157 | Tubastatin A 0.463 | [1] -0.146 | defactinib 0.034 | rucaparib 0.447 | [2] 0.052 | encorafenib 0.194 | [3] -0.007 | [4] 0.138 | filanesib 0.304 | zotarolimus 0.136 | alisertib -0.166 | [5] 0.062 | gefitinib -0.234 | [6] 0.03 | lapatinib 0.158

IER3IP1 (UniProt Q9Y5U9)
inactive: saracatinib 0.29 | sotrastaurin -0.083 | alvocidib 0.042 | Tubastatin A -0.109 | [1] -0.063 | defactinib 0.148 | rucaparib 0.013 | [2] -0.05 | encorafenib 0.03 | [3] -0.068 | [4] 0.153 | filanesib -0.159 | zotarolimus -0.083 | idasanutlin 0.006 | alisertib -0.075 | [5] 0.003 | [6] 0.038 | lapatinib 0.055 | pictilisib -0.052

IKBKG isoform 2 (UniProt Q9Y6K9)
inactive: saracatinib 0.02 | sotrastaurin 0.002 | alvocidib 0.077 | Tubastatin A 0.031 | [1] -0.024 | defactinib 0.051 | rucaparib -0.011 | [2] -0.043 | encorafenib -0.01 | [3] 0.008 | [4] -0.019 | filanesib 0.01 | zotarolimus 0.02 | idasanutlin -0.01 | alisertib -0.089 | [5] -0.025 | gefitinib -0.011 | [6] -0.016 | lapatinib 0.032 | pictilisib 0.034

ISY1 isoform 1 (UniProt Q9ULR0)
inactive: saracatinib 0.019 | sotrastaurin 0.037 | alvocidib 0.14 | Tubastatin A -0.003 | [1] 0.013 | defactinib 0.113 | rucaparib 0.101 | [2] -0.066 | encorafenib -0.033 | [3] 0.027 | [4] -0.074 | filanesib 0.086 | zotarolimus -0.033 | idasanutlin 0.021 | alisertib -0.029 | [5] 0.051 | gefitinib -0.045 | [6] 0.006 | lapatinib -0.008 | pictilisib 0.086

IMPAD1 (UniProt Q9NX62)
inactive: saracatinib 0.001 | sotrastaurin 0.029 | alvocidib 0.003 | Tubastatin A 0.01 | [1] -0.016 | defactinib -0.052 | rucaparib -0.059 | [2] -0.012 | encorafenib 0.004 | [3] -0.025 | [4] 0.005 | filanesib -0.037 | zotarolimus -0.041 | idasanutlin -0.072 | alisertib 0.007 | [5] -0.01 | gefitinib 0.035 | [6] 0.032 | lapatinib -0.04 | pictilisib 0.145

IST1 isoform 5 (UniProt P53990)
inactive: saracatinib -0.028 | sotrastaurin -0.071 | alvocidib -0.094 | Tubastatin A -0.002 | [1] -0.01 | defactinib -0.026 | rucaparib -0.029 | [2] 0 | encorafenib 0.04 | [3] -0.039 | [4] -0.006 | filanesib -0.169 | zotarolimus 0.035 | idasanutlin -0.071 | alisertib -0.001 | [5] -0.008 | gefitinib -0.015 | [6] -0.111 | lapatinib -0.026 | pictilisib -0.035

IRF2BP1 (UniProt Q8IU81)
inactive: saracatinib -0.071 | sotrastaurin -0.118 | alvocidib 0.141 | Tubastatin A 0.012 | [1] 0.084 | rucaparib -0.013 | [2] -0.062 | encorafenib 0.08 | filanesib 0.033 | zotarolimus 0.061 | alisertib -0.03 | [5] -0.011 | [6] 0.19 | lapatinib -0.194

IRF2BP2 (UniProt Q7Z5L9)
inactive: saracatinib 0.021 | sotrastaurin 0.027 | alvocidib -0.063 | Tubastatin A 0.039 | [1] 0.03 | defactinib -0.033 | rucaparib 0.023 | [2] -0.041 | encorafenib -0.001 | [3] -0.043 | [4] 0.187 | filanesib -0.011 | zotarolimus -0.07 | idasanutlin 0.01 | alisertib -0.071 | [5] 0.052 | gefitinib 0.011 | [6] -0.005 | lapatinib -0.031 | pictilisib -0.014

IQGAP1 (UniProt P46940)
inactive: saracatinib -0.025 | sotrastaurin -0.019 | alvocidib -0.045 | Tubastatin A 0.042 | [1] -0.056 | defactinib -0.043 | rucaparib 0 | [2] 0.054 | encorafenib 0.025 | [3] -0.03 | [4] 0.036 | filanesib -0.05 | zotarolimus 0.021 | idasanutlin -0.045 | alisertib -0.004 | [5] 0.095 | gefitinib 0.008 | [6] -0.031 | lapatinib -0.054 | pictilisib -0.06

IFNAR1 (UniProt P17181)
inactive: saracatinib 0.134 | sotrastaurin 0.065 | alvocidib 0.146 | Tubastatin A 0.007 | defactinib -0.042 | [2] 0.033 | [3] 0.001 | [4] 0.109 | filanesib 0.003 | zotarolimus -0.249 | alisertib -0.07 | [5] 0.114 | gefitinib -0.053 | [6] 0.046 | lapatinib -0.025 | pictilisib -0.058

INTS14 (UniProt Q96SY0)
inactive: saracatinib -0.028 | sotrastaurin -0.01 | alvocidib -0.033 | Tubastatin A 0.006 | [1] -0.049 | defactinib -0.097 | rucaparib -0.009 | [2] 0.017 | encorafenib 0.031 | [3] -0.016 | [4] 0.068 | filanesib -0.028 | zotarolimus -0.027 | idasanutlin -0.033 | alisertib 0.008 | [5] -0.005 | gefitinib -0.011 | [6] 0.038 | lapatinib 0.031 | pictilisib -0.023

ITPK1 (UniProt Q13572)
inactive: saracatinib -0.014 | sotrastaurin 0.067 | alvocidib -0.051 | Tubastatin A 0.058 | [1] -0.067 | defactinib -0.025 | rucaparib -0.074 | [2] 0.048 | encorafenib -0.026 | [3] -0.064 | [4] -0.005 | filanesib -0.101 | zotarolimus 0.017 | idasanutlin -0.144 | alisertib 0.109 | [5] 0.058 | gefitinib 0.027 | [6] 0.087 | lapatinib -0.046 | pictilisib -0.003

INTS13 (UniProt Q9NVM9)
inactive: saracatinib -0.049 | sotrastaurin -0.065 | alvocidib -0.14 | Tubastatin A 0.038 | [1] -0.051 | defactinib -0.126 | rucaparib -0.011 | [2] 0.081 | encorafenib 0.003 | [3] -0.048 | [4] 0.037 | filanesib -0.088 | zotarolimus -0.013 | idasanutlin -0.078 | alisertib 0.032 | [5] 0.035 | gefitinib 0.068 | [6] -0.019 | lapatinib -0.021 | pictilisib -0.05
